{"source": "the supplement of paper PMC8728848", "assay_in_all_cases": "glycan array binding signal (z-score within array); higher = stronger binding", "conditions_in_all_cases": "glycan notation: IUPAC condensed, linker removed", "key": {"[1]": {"molecular_target": "Gal(b1-4)GlcNAc(b1-3)Gal(b1-4)GlcNAc(b1-3)[Gal(b1-4)GlcNAc(b1-3)Gal(b1-4)GlcNAc(b1-6)]GalNAc", "method_in_brief": "(§1)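 Columns mapping to the same glycan were averaged after glycan names were converted to IUPAC-condensed notation. The data come from 3228 arrays in the Consortium for Functional Glycomics database, limited to those with an available protein sequence. Binding is reported as a within-array Z-score averaged across arrays of one protein sequence and across linkers.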"}, "[2]": {"molecular_target": "Gal(b1-4)GlcNAc(b1-3)Gal(b1-4)GlcNAc(b1-6)[Gal(b1-3)]GalNAc", "method_in_brief": "as §1"}, "[3]": {"molecular_target": "Gal(b1-4)GlcNAc(b1-3)Gal(b1-4)[Fuc(a1-3)]GlcNAc(b1-3)Gal(b1-4)[Fuc(a1-3)]GlcNAc", "method_in_brief": "as §1"}, "[4]": {"molecular_target": "Gal(b1-4)GlcNAc(b1-3)GalNAc", "method_in_brief": "as §1"}, "[5]": {"molecular_target": "Gal(b1-4)GlcNAc(b1-3)[Fuc(a1-3)GlcNAc(b1-6)]Gal(b1-4)Glc", "method_in_brief": "as §1"}, "[6]": {"molecular_target": "Gal(b1-4)GlcNAc(b1-3)[Gal(b1-4)GlcNAc(b1-6)]Gal(b1-4)GlcNAc", "method_in_brief": "as §1"}, "[7]": {"molecular_target": "Gal(b1-4)GlcNAc(b1-3)[GlcNAc(b1-6)]Gal(b1-4)GlcNAc", "method_in_brief": "as §1"}, "[8]": {"molecular_target": "Gal(b1-4)GlcNAc(b1-6)Gal(b1-4)GlcNAc", "method_in_brief": "as §1"}, "[9]": {"molecular_target": "Gal(b1-4)GlcNAc(b1-6)GalNAc", "method_in_brief": "as §1"}, "[10]": {"molecular_target": "Gal(b1-4)GlcNAc(b1-6)[Gal(b1-3)]GalNAc", "method_in_brief": "as §1"}, "[11]": {"molecular_target": "Gal(b1-4)GlcNAc(b1-6)[Gal(b1-4)GlcNAc(b1-3)]GalNAc", "method_in_brief": "as §1"}, "Gal(b1-4)GlcNAc6P": {"molecular_target": "Gal(b1-4)GlcNAc6P", "method_in_brief": "as §1"}, "Gal(b1-6)Gal": {"molecular_target": "Gal(b1-6)Gal", "method_in_brief": "as §1"}, "Gal3S(b1-3)GalNAc": {"molecular_target": "Gal3S(b1-3)GalNAc", "method_in_brief": "as §1"}, "Gal3S(b1-3)GlcNAc": {"molecular_target": "Gal3S(b1-3)GlcNAc", "method_in_brief": "as §1"}, "[12]": {"molecular_target": "Gal3S(b1-3)[Fuc(a1-4)]GlcNAc", "method_in_brief": "as §1"}, "Gal3S(b1-4)Glc": {"molecular_target": "Gal3S(b1-4)Glc", "method_in_brief": "as §1"}, "Gal3S(b1-4)Glc6S": {"molecular_target": "Gal3S(b1-4)Glc6S", "method_in_brief": "as §1"}, "Gal3S(b1-4)GlcNAc": {"molecular_target": "Gal3S(b1-4)GlcNAc", "method_in_brief": "as §1"}, "[13]": {"molecular_target": "Gal3S(b1-4)[Fuc(a1-3)]Glc6S", "method_in_brief": "as §1"}, "[14]": {"molecular_target": "Gal3S(b1-4)[Fuc(a1-3)]GlcNAc", "method_in_brief": "as §1"}, "[15]": {"molecular_target": "Gal3S(b1-4)[Fuc(a1-3)]GlcNAc6S", "method_in_brief": "as §1"}, "Gal3S4S(b1-4)GlcNAc": {"molecular_target": "Gal3S4S(b1-4)GlcNAc", "method_in_brief": "as §1"}, "Gal3S6S(b1-4)GlcNAc": {"molecular_target": "Gal3S6S(b1-4)GlcNAc", "method_in_brief": "as §1"}, "Gal3S6S(b1-4)GlcNAc6S": {"molecular_target": "Gal3S6S(b1-4)GlcNAc6S", "method_in_brief": "as §1"}, "Gal4S(b1-4)GlcNAc": {"molecular_target": "Gal4S(b1-4)GlcNAc", "method_in_brief": "as §1"}, "Gal4S6S(b1-4)GlcNAc": {"molecular_target": "Gal4S6S(b1-4)GlcNAc", "method_in_brief": "as §1"}, "Gal6P(b1-4)GlcNAc": {"molecular_target": "Gal6P(b1-4)GlcNAc", "method_in_brief": "as §1"}, "Gal6S(b1-3)GlcNAc": {"molecular_target": "Gal6S(b1-3)GlcNAc", "method_in_brief": "as §1"}, "Gal6S(b1-3)GlcNAc6S": {"molecular_target": "Gal6S(b1-3)GlcNAc6S", "method_in_brief": "as §1"}, "Gal6S(b1-4)Glc": {"molecular_target": "Gal6S(b1-4)Glc", "method_in_brief": "as §1"}, "Gal6S(b1-4)Glc6S": {"molecular_target": "Gal6S(b1-4)Glc6S", "method_in_brief": "as §1"}, "Gal6S(b1-4)GlcNAc": {"molecular_target": "Gal6S(b1-4)GlcNAc", "method_in_brief": "as §1"}, "Gal6S(b1-4)GlcNAc6S": {"molecular_target": "Gal6S(b1-4)GlcNAc6S", "method_in_brief": "as §1"}, "GalNAc(a1-3)Gal": {"molecular_target": "GalNAc(a1-3)Gal", "method_in_brief": "as §1"}, "GalNAc(a1-3)GalNAc": {"molecular_target": "GalNAc(a1-3)GalNAc", "method_in_brief": "as §1"}, "[16]": {"molecular_target": "GalNAc(a1-3)GalNAc(b1-3)Gal(a1-4)Gal(b1-4)Glc", "method_in_brief": "as §1"}, "[17]": {"molecular_target": "GalNAc(a1-3)GalNAc(b1-3)Gal(a1-4)Gal(b1-4)GlcNAc", "method_in_brief": "as §1"}, "GalNAc(b1-3)Gal": {"molecular_target": "GalNAc(b1-3)Gal", "method_in_brief": "as §1"}, "[18]": {"molecular_target": "GalNAc(b1-3)Gal(a1-4)Gal(b1-4)GlcNAc", "method_in_brief": "as §1"}, "[19]": {"molecular_target": "GalNAc(b1-3)Gal(a1-4)Gal(b1-4)GlcNAc(b1-3)Gal(b1-4)Glc", "method_in_brief": "as §1"}, "[20]": {"molecular_target": "GalNAc(b1-3)Gal(a1-6)Gal(b1-4)Glc", "method_in_brief": "as §1"}, "GalNAc(b1-3)GalNAc": {"molecular_target": "GalNAc(b1-3)GalNAc", "method_in_brief": "as §1"}, "GalNAc(b1-3)GlcNAc": {"molecular_target": "GalNAc(b1-3)GlcNAc", "method_in_brief": "as §1"}, "GalNAc(b1-4)Gal(b1-4)Glc": {"molecular_target": "GalNAc(b1-4)Gal(b1-4)Glc", "method_in_brief": "as §1"}}, "note": "This is one part of the list.", "data": [{"binder": "XTP3-B-MRH2 (Homo sapiens), Q96DZ1 (protein) EFLSGSYCFRGGVGWWKYEFCYGKHVHQYHEDKDSGKTSVVVGTWNQEEHIEWAKKNTARAYHLQDDGTQTVRMVSHFYGNGDICDITDKPRQVTVKLKCKESDSPHAVTVYMLEPHSCQYILGVESPVICKILDTA", "values": [{"measurement": "glycan array binding signal (z-score)", "setting": "[1]", "value": -0.807}, {"measurement": "glycan array binding signal (z-score)", "setting": "[2]", "value": -0.431}, {"measurement": "glycan array binding signal (z-score)", "setting": "[3]", "value": 1.42}, {"measurement": "glycan array binding signal (z-score)", "setting": "[4]", "value": -1.45}, {"measurement": "glycan array binding signal (z-score)", "setting": "[5]", "value": -0.78}, {"measurement": "glycan array binding signal (z-score)", "setting": "[6]", "value": -0.399}, {"measurement": "glycan array binding signal (z-score)", "setting": "[7]", "value": 0.199}, {"measurement": "glycan array binding signal (z-score)", "setting": "[8]", "value": -0.66}, {"measurement": "glycan array binding signal (z-score)", "setting": "[9]", "value": -0.837}, {"measurement": "glycan array binding signal (z-score)", "setting": "[10]", "value": -0.315}, {"measurement": "glycan array binding signal (z-score)", "setting": "[11]", "value": 0.934}, {"measurement": "glycan array binding signal (z-score)", "setting": "Gal(b1-4)GlcNAc6P", "value": -1.42}, {"measurement": "glycan array binding signal (z-score)", "setting": "Gal(b1-6)Gal", "value": -0.532}, {"measurement": "glycan array binding signal (z-score)", "setting": "Gal3S(b1-3)GalNAc", "value": 1.26}, {"measurement": "glycan array binding signal (z-score)", "setting": "Gal3S(b1-3)GlcNAc", "value": -0.364}, {"measurement": "glycan array binding signal (z-score)", "setting": "[12]", "value": 0.892}, {"measurement": "glycan array binding signal (z-score)", "setting": "Gal3S(b1-4)Glc", "value": 0.107}, {"measurement": "glycan array binding signal (z-score)", "setting": "Gal3S(b1-4)Glc6S", "value": 0.874}, {"measurement": "glycan array binding signal (z-score)", "setting": "Gal3S(b1-4)GlcNAc", "value": 0.319}, {"measurement": "glycan array binding signal (z-score)", "setting": "[13]", "value": 2.08}, {"measurement": "glycan array binding signal (z-score)", "setting": "[14]", "value": -0.289}, {"measurement": "glycan array binding signal (z-score)", "setting": "[15]", "value": 0.284}, {"measurement": "glycan array binding signal (z-score)", "setting": "Gal3S4S(b1-4)GlcNAc", "value": -0.385}, {"measurement": "glycan array binding signal (z-score)", "setting": "Gal3S6S(b1-4)GlcNAc", "value": 1.19}, {"measurement": "glycan array binding signal (z-score)", "setting": "Gal3S6S(b1-4)GlcNAc6S", "value": 0.709}, {"measurement": "glycan array binding signal (z-score)", "setting": "Gal4S(b1-4)GlcNAc", "value": -0.334}, {"measurement": "glycan array binding signal (z-score)", "setting": "Gal4S6S(b1-4)GlcNAc", "value": -0.162}, {"measurement": "glycan array binding signal (z-score)", "setting": "Gal6P(b1-4)GlcNAc", "value": 1.11}, {"measurement": "glycan array binding signal (z-score)", "setting": "Gal6S(b1-3)GlcNAc", "value": 1.62}, {"measurement": "glycan array binding signal (z-score)", "setting": "Gal6S(b1-3)GlcNAc6S", "value": -1.14}, {"measurement": "glycan array binding signal (z-score)", "setting": "Gal6S(b1-4)Glc", "value": 0.215}, {"measurement": "glycan array binding signal (z-score)", "setting": "Gal6S(b1-4)Glc6S", "value": 0.292}, {"measurement": "glycan array binding signal (z-score)", "setting": "Gal6S(b1-4)GlcNAc", "value": -1.65}, {"measurement": "glycan array binding signal (z-score)", "setting": "Gal6S(b1-4)GlcNAc6S", "value": -0.36}, {"measurement": "glycan array binding signal (z-score)", "setting": "GalNAc(a1-3)Gal", "value": -0.916}, {"measurement": "glycan array binding signal (z-score)", "setting": "GalNAc(a1-3)GalNAc", "value": 5.08}, {"measurement": "glycan array binding signal (z-score)", "setting": "[16]", "value": -1.04}, {"measurement": "glycan array binding signal (z-score)", "setting": "[17]", "value": 0.574}, {"measurement": "glycan array binding signal (z-score)", "setting": "GalNAc(b1-3)Gal", "value": 0.566}, {"measurement": "glycan array binding signal (z-score)", "setting": "[18]", "value": 1.17}, {"measurement": "glycan array binding signal (z-score)", "setting": "[19]", "value": -0.403}, {"measurement": "glycan array binding signal (z-score)", "setting": "[20]", "value": 0.756}, {"measurement": "glycan array binding signal (z-score)", "setting": "GalNAc(b1-3)GalNAc", "value": -1.03}, {"measurement": "glycan array binding signal (z-score)", "setting": "GalNAc(b1-3)GlcNAc", "value": 2.05}, {"measurement": "glycan array binding signal (z-score)", "setting": "GalNAc(b1-4)Gal(b1-4)Glc", "value": -0.842}]}]}
